Experimental data published in PubChem BioAssay AID493014 (National Center for Advancing Translational Sciences (NCATS), 2011).
This is one part of the list. The main result of the screen is listed elsewhere. These columns were measured beside it and carry no call. Compounds called inactive in the main read-out are mostly missing here. The note in brackets gives the kind of curve behind each potency; many fits are weak.

Assay: qHTS Assay to Find Inhibitors of Chronic Active B-Cell Receptor Signaling
Details: ABC-DLBCL IkBa-CBG/CBR reporter, luminescence ratio (green luciferase fused to IkBa over red control in TMD8 lymphoma cells), 4 h
Method in brief: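 Cell line TMD8 (human ABC DLBCL), stably expressing tet-inducible CBG68-IkBa fusion and CBR; IMDM/0.5% FBS; cpd up to 46 uM; dox induction, 4 h, 37C/5% CO2; dual luminescence; green/red ratio; MG132 control.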

[1] = measured here: CBR red luminescence, cell number
[2] = measured here: IkBa-CBG green luminescence

SMILES: COc1cc(OC)cc(C(=O)Nc2ccc3c(c2)n(C)c(=O)n3C)c1
- AC50 [1]: 0.631 µM [falling, full curve, poor fit]
- AC50 [2]: 12.6 µM [falling, partial curve, poor fit]

SMILES: ClCc1c2ccccc2cc2ccccc12
- AC50 [1]: 6.51 µM [rising, single point]

SMILES: O=C(Oc1cccc2cccnc12)c1ccc2c(c1)OCCO2
- AC50 [1]: 5.8 µM [falling, full curve]
- AC50 [2]: 3.26 µM [falling, full curve]

SMILES: Cc1noc(C)c1CSc1nnc(-c2ccccc2)n1Cc1ccco1
- AC50 [1]: 35.5 µM [rising, single point]

SMILES: C[C@@H](C(=O)Nc1nc2ccc(F)cc2s1)N1C(=O)C2CC=CCC2C1=O (some centres undefined)
- AC50 [1]: 6.31 µM [falling, full curve, poor fit]

SMILES: O=C(Nc1nnc(-c2ccc(F)cc2)o1)c1ccco1
- AC50 [1]: 6.31 µM [falling, partial curve, poor fit]

SMILES: O=C(Cc1ccccc1)Nc1cccc(N2C(=O)C=CC2=O)c1
- AC50 [1]: 14.6 µM [falling, partial curve, poor fit]

SMILES: CCCn1c(=O)c2sccc2n2c(CCCC(=O)NC3CCN(Cc4ccccc4)CC3)nnc12
- AC50 [1]: 5.62 µM [falling, partial curve, poor fit]

SMILES: CC1CCCCN1C(=O)CSc1nc(C2CC2)nc2c1cnn2-c1ccccc1 (centres undefined)
- AC50 [1]: 0.366 µM [falling, full curve, poor fit]

SMILES: CCOC(=O)C(C(=O)OCC)C(Nc1cccc(Br)c1)c1ccccc1 (centres undefined)
- AC50 [1]: 0.891 µM [falling, full curve, poor fit]

SMILES: Cc1cc(C)n(-c2ccc(C(=O)Nc3ccc4c(c3)OCO4)cc2)n1
- AC50 [1]: 2.31 µM [falling, full curve]

SMILES: CC(=O)NC(CC(=O)O)c1ccc(F)cc1 (centres undefined)
- AC50 [1]: 6.31 µM [falling, single point]

SMILES: Cc1cc(C)n(-c2nc3c(c(=O)[nH]c(=O)n3C)n2C(C)C)n1
- AC50 [1]: 11.2 µM [rising, partial curve, poor fit]

SMILES: COC(=O)c1sccc1NC(=O)CSc1ccccc1NS(=O)(=O)c1ccc(F)cc1
- AC50 [1]: 20.6 µM [falling, single point]

SMILES: O=C(/C=C/c1cccc([N+](=O)[O-])c1)Nc1cccc(NC(=O)c2cccs2)c1
- AC50 [1]: 0.206 µM [falling, full curve, poor fit]

SMILES: COc1ccc(-c2csc(NC(=O)CSc3nc(SC)ns3)n2)cc1
- AC50 [1]: 20.6 µM [falling, single point]

SMILES: CCSc1ccc(C(=O)Nc2cccc(C)n2)cc1[N+](=O)[O-]
- AC50 [1]: 0.731 µM [rising, full curve, poor fit]
